Measured values published in publication PMC9135688.
These are yes or no findings as the source states them, for the method shown. In cells and extracts the contact can be indirect. Some entries that bind do so weakly or less than the wild type. For some assays here: Tags and fused reporters may be left off the sequences shown.

The chains behind the UniProt entries cited, without tags or fusion partners.
UniProt P58801: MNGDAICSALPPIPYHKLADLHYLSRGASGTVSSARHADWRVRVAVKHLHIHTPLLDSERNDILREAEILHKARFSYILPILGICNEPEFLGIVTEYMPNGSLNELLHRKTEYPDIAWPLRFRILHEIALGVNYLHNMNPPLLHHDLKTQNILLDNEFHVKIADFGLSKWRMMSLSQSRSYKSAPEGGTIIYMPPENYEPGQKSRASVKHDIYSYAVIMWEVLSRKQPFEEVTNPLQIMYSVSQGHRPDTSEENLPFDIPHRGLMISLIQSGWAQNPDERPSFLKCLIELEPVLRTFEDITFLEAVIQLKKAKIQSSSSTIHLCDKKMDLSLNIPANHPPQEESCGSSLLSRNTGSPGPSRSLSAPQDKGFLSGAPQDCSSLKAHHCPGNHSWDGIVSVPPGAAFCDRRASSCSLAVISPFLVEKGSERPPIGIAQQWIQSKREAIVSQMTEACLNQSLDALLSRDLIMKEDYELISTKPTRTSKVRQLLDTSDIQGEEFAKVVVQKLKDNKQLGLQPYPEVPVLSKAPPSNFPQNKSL

What was measured:
[1] = target: T1, V5-Caspase-1 (in HEK293T) (mouse) (UniProt P29452); assay: co-IP; HEK293T cells transfected with V5-Caspase-1, Flag-ASC and increasing amounts of HA-Ripk2 for 48 h; IP with anti-V5, IB with anti-Flag, anti-HA or anti-V5
T1 sequence: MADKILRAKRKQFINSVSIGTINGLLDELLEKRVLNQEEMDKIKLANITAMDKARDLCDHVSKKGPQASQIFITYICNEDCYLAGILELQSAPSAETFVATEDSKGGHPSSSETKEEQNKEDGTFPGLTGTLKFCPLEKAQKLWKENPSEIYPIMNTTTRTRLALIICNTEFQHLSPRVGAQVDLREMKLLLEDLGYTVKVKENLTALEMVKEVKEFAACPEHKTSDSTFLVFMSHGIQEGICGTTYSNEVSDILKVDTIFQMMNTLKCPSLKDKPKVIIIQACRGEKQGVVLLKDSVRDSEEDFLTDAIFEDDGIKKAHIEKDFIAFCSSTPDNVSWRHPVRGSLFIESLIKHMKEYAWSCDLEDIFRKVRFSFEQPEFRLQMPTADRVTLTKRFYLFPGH

[2] = target: T2, Flag-tagged Card9 (mouse) (UniProt A2AIV8); assay: co-IP; reciprocal Co-IP from HEK293T cells transfected with Flag-tagged Card9 and HA-tagged Ripk2; Western blot
T2 sequence: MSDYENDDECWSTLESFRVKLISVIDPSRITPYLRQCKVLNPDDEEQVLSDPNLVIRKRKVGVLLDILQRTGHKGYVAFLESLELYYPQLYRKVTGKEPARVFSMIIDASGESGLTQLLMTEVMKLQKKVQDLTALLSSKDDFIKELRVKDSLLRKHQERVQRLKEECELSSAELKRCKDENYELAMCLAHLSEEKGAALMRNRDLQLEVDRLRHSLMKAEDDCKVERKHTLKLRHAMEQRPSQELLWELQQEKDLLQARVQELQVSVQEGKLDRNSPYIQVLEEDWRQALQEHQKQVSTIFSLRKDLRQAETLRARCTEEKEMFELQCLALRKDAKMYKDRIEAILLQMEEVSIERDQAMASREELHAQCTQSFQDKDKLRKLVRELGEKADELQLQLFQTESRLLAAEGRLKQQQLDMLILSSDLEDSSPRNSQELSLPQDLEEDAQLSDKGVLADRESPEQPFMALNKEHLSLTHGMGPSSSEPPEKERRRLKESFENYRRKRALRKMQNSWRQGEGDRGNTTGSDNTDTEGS

[3] = target: T3, Card9 (mouse (endogenous in BMDMs)) (UniProt A2AIV8); assay: co-IP; endogenous Card9 and Ripk2 in BMDMs treated with LPS; Western blot
T3 sequence: T2 sequence

[4] = target: T4, V5-Caspase-1 (in BMDMs) (mouse) (UniProt P29452); assay: co-IP; BMDMs containing V5-Caspase-1 stimulated with LPS + ATP for the indicated times; IP with anti-V5, IB with anti-ASC or anti-Ripk2
T4 sequence: T1 sequence

[5] = target: T5, ASC (apoptosis associated speck-like protein containing CARD) (mouse (endogenous in BMDMs)) (UniProt Q9EPB4); assay: co-IP; lysates of BMDMs (WT or Card9-/-; or transfected with Card9 over-expression plasmid) immunoprecipitated with anti-ASC, then immunoblot; cells unstimulated or primed with LPS 100 ng/ml 3 h, then ATP 5 mM 1 h
T5 sequence: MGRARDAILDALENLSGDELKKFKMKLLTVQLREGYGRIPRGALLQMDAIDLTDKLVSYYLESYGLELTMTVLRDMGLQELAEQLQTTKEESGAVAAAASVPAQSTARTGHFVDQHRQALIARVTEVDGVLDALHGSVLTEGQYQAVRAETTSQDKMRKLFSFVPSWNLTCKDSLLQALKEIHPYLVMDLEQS

HA-tagged Ripk2 (from UniProt P58801 1-539)
binding [1]: binds
binding [2]: binds

Ripk2 (from UniProt P58801 1-539)
binding [3]: binds
binding [4]: binds

B1: pro-caspase-1 (protein, UniProt P29452 1-402)
chain: T1 sequence
binding [5]: binds
